# Screening data, single-dose tests

Amino acid sequences for entries named in this document (tags omitted).
UniProt P9WPC5, whole entry: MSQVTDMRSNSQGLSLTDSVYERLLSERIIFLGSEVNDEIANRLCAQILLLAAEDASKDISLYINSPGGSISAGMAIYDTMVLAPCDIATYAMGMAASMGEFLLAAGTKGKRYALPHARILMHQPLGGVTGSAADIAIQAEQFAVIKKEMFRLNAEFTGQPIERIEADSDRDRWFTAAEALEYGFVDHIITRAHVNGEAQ
UniProt P9WPC3, whole entry partner: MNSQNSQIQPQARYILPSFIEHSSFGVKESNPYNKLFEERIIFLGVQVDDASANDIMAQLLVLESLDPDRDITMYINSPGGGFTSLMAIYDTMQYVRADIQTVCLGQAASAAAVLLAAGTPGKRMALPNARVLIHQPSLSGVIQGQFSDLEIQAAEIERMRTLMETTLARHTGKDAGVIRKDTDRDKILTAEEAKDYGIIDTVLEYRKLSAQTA
UniProt I6X8D2, whole entry: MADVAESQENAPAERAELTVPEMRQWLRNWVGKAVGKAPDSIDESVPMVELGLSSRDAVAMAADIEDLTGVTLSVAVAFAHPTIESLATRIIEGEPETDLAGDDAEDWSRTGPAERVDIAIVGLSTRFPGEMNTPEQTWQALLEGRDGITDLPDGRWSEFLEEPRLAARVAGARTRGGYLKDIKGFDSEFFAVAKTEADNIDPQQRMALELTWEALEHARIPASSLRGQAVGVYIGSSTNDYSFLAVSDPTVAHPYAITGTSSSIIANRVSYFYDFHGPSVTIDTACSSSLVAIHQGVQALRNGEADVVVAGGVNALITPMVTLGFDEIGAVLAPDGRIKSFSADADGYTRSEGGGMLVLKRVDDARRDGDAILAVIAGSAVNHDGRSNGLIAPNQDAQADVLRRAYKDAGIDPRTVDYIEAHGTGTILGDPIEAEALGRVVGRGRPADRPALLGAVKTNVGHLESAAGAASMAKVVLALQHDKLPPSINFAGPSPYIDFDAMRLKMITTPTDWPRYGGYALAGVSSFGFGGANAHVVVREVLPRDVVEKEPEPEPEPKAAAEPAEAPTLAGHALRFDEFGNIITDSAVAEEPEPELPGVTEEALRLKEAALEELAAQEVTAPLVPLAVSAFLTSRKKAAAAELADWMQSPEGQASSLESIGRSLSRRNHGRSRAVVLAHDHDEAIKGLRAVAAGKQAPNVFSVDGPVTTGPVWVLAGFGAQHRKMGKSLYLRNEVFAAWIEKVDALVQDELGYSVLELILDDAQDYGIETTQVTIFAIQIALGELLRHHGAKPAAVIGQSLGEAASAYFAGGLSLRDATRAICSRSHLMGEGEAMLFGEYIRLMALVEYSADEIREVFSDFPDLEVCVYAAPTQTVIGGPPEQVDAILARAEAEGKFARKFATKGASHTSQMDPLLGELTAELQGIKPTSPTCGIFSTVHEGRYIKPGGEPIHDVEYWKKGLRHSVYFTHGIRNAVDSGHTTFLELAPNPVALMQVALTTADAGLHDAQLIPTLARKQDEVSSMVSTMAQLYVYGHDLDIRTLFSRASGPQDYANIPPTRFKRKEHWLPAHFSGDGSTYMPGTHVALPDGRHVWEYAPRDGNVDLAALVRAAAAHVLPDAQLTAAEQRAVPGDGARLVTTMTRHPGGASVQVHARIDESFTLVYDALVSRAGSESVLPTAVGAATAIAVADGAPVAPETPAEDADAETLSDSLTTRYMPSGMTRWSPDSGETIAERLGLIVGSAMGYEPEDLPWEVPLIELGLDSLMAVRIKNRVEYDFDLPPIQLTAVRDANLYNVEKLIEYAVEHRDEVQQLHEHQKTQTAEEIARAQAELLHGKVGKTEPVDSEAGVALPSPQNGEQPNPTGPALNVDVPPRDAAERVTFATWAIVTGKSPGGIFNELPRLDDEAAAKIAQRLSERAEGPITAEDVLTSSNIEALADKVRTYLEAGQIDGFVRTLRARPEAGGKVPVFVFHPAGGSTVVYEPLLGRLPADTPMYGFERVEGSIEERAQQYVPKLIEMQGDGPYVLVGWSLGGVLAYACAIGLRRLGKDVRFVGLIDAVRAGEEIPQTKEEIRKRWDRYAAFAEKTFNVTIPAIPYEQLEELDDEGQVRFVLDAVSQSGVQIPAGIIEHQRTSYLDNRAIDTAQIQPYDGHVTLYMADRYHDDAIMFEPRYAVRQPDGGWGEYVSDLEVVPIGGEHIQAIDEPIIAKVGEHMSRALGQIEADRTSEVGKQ

From ChEMBL document CHEMBL3988442, “University of Dundee, Small-Polar-MMV Screening Library” (2021).

The filed quantity is “Percent Effect” (%). The record does not define 0% and 100%; most values in the screen are far below 50% and negative numbers occur (in some assays of this library far below -100). This is an unselected part of the compounds tested. A dash means the value is not listed here; it may have been measured.

A: 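Protease assay of ClpP1P2, read by the AMC dye that it sets free. Target: ClpP1P2, Mycobacterium tuberculosis (UniProt P9WPC5 and UniProt P9WPC3). Concentration: 50 µM. Higher reads as stronger inhibition, judged from the few compounds that gave an IC50. Most other retested compounds had strongly negative values. About 69,000 compounds were tested under these conditions; 0.015% (about 10) showed 50% or more at least once.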
B: 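Polyketide synthase Pks13, Mycobacterium tuberculosis (UniProt I6X8D2). Enzyme assay of the thioesterase domain of polyketide synthase 13; the read-out is not stated. Compounds at 30 µM. Higher reads as stronger inhibition (inferred from which compounds were picked for retests). Of about 67,000 compounds tested this way, about 300 (0.46%) reached 50% or more in at least one test.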

| compound | A | B |
|---|---|---|
| `O=C(CS(=O)(=O)c1ncccc1Cl)NC1CCCc2ccccc21` (centres unmarked) | 3.935% | -77.31% |
| `CC(C)n1cnc2c1C(C(=O)N1CCOCC1)N(CC1CC1)CC2` (centres unmarked) | -5.488% | -7.265% |
| `CC(C)c1cc(-c2nn3c(C(C)C)nnc3s2)[nH]n1` | -19.65% | -7.293% |
| `O=c1[nH]c2nc(N3CCSCC3)ncc2c(=O)n1-c1cccc(F)c1` | 7.143% | -27.76% |
| `Cn1cc(S(=O)(=O)Nc2ccc3[nH]c(C4CCC4)nc3c2)cn1` | -6.558% | -9.797% |
| `COCCc1noc(CNC2CCCN(c3cccnn3)C2)n1` (centres unmarked) | -14.5% | -6.896% |
| `NC(=O)C1CN(c2ccc3c(Cl)ccnc3c2F)CCO1` (centres unmarked) | 1.396% | -56.52% |
| `O=C(Nc1cccc(CN2CCOC2=O)c1)N1CCSCC1` | 1.415% | -18.1% |
| `Fc1ccccc1-c1cc(N2[C@@H]3CC[C@H]2CNC3)n2nccc2n1` | -80.13% | -27.64% |
| `CCOC(=O)[C@]12CCCN(Cc3cccs3)C[C@H]1CN(CC(C)C)C2` | -6.827% | -33.48% |
| `CC(C)c1nnc(NC(=O)C2CSCN2C(=O)C2CCC2)s1` (centres unmarked) | 5.728% | -5.171% |
| `Cc1ccc(C(=O)N2CCSCC2)cc1NC(=O)NCCO` | -1.219% | -8.138% |
| `N#Cc1ccc(F)c(CN2CCCCC2Cn2cccn2)c1` (centres unmarked) | -1.169% | -8.625% |
| `CC[C@@H]1N(Cc2ccsc2)CCC[C@]12CCC(=O)N2CCOC` | 8.444% | 1.476% |
| `CCCOC(=O)N1CCC(c2nnc(Cn3cccn3)n2C2CC2)CC1` | -12.52% | -17.97% |
| `CC(CCN1CCOCC1)NC(=O)c1cccc(C(F)(F)F)c1F` (centres unmarked) | -0.7045% | -13.76% |
| `CC(C)(C)c1n[nH]c(C2CN(C(=O)c3ccsc3)CCO2)n1` (centres unmarked) | 9.899% | -9.275% |
| `CN(CCc1cccs1)C(=O)Nc1cnn(CC2CCCO2)c1` (centres unmarked) | -4.901% | -12.71% |
| `O=C1CN(c2ccc(CNc3cncc(-n4cccn4)n3)cc2)CCN1` | 6.671% | -19.56% |
| `Cc1cc(CN(CCO)Cc2cc(Br)ccc2F)no1` | -19.39% | -29.72% |
| `CC(Cn1cccn1)n1cnc2cccc(F)c2c1=O` (centres unmarked) | -4.102% | -17.33% |
| `COCCc1noc(CN(C)c2nc(C)nc(C)c2C)n1` | 12.09% | -11.38% |
| `C[C@]1(O)CN(Cc2ncccc2F)CC[C@@H]1Oc1ccccc1` | 0.3238% | 9.01% |
| `Cc1noc([C@H]2CC[C@@H]3[C@@H](CCN3c3ncccn3)O2)n1` | -16.85% | 5.884% |
| `O=C(Nc1ccc(CCN2CCOCC2)cc1)C1CC1` | -12.73% | -3.004% |
| `CC(C)(C)c1noc(CNc2ccccc2N2CCC(O)CC2)n1` | 7.534% | -24.86% |
| `OCCN(CCO)Cc1ccc(Br)c2cccnc12` | -10.69% | -5.778% |
| `COc1ccc(C(C)NCc2ccc(OC)c(OC)c2OC)cc1F` (centres unmarked) | 4.032% | - |
| `Cc1nc(CNC(=O)[C@@H]2CCCN2C(=O)OC(C)(C)C)cs1` | 2.633% | -35.7% |
| `CCCNC(=O)C1CCN(CC2(O)CCC(C)CC2)CC1` (centres unmarked) | 1.077% | -24.78% |
| `CCC1COCCN1C(=O)NCc1nccn1CC(C)C` (centres unmarked) | 0.4545% | -12.18% |
| `CC(C)(NC(=O)NCc1cccc(Br)c1)C(=O)O` | 5.648% | -18.1% |
| `CC(C)OC(=O)N1CCCC2(CCC(=O)N(CCc3c[nH]cn3)C2)C1` (centres unmarked) | -7.976% | -39.09% |
| `Cc1ccc(CCNC(=O)N2CCC(Cc3cnn(C)c3)C2)cn1` (centres unmarked) | -9.694% | -6.983% |
| `CC(C)Oc1cc(N2C[C@H](C3CC3)[C@@H](N)C2)nc(N)n1` | -5.226% | -22.76% |
| `CNC(=O)CN1CCCC12CCN(Cc1c[nH]cn1)CC2` | -6.498% | -2.651% |
| `Cc1nn(CC(C)C)c(N(C)C)c1CNCc1cccc2c1OCO2` | 8.736% | 25.77% |
| `COc1ccc(C(=O)NC(CC(=O)O)c2cccs2)c(OC)c1` (centres unmarked) | 14.2% | -16.65% |
| `Cc1cccnc1Nc1nccc(C2CN(CC(N)=O)C2)n1` | 11.89% | -17.68% |
| `CC(C)n1cnc(C2CN(C)c3ccc(C(=O)NC4CCCC4)cc32)n1` (centres unmarked) | -1.069% | -34.97% |
| `CCc1n[nH]c(C2CN(C(=O)c3ncoc3C(C)C)CCO2)n1` (centres unmarked) | -7.872% | -7.292% |
| `Cc1cncc(C2CCCN(C(=O)c3scnc3C)C2)n1` (centres unmarked) | 3.996% | -16.37% |
| `CN1CCN(CC2(O)CCN(C(=O)CCc3ccccc3F)C2)CC1` (centres unmarked) | -19.02% | 0.9998% |
| `O=C(c1cc2c([nH]c1=O)CCC2)N1CCCC1c1ccc(F)cc1` (centres unmarked) | 4.973% | -4.092% |
| `Cc1cc(CN2CCN(C(C)C(=O)NCc3cccs3)CC2)no1` (centres unmarked) | -7.61% | -22.75% |
| `NC(=O)CN1CCCN(C(=O)Cc2ccc3c(c2)OCCO3)CC1` | -36.23% | -0.6613% |
| `CC(Oc1ccccc1C(F)(F)F)C(=O)NCCNC(=O)C1CC1` (centres unmarked) | -11.72% | -20.94% |
| `c1nc2c(c(C3CCOC3)n1)CCN(Cc1ccoc1)CC2` (centres unmarked) | -2.323% | 1.486% |
| `CN(C)C(=O)N1CC2(CCN(CC3CC3)CC2)c2cc(F)ccc21` | -6.45% | -56.5% |
| `CN(C)c1cccc(C(=O)N2CCCc3cc(OC(F)(F)F)ccc32)c1` | 3.52% | -35.47% |
| `CN1CCO[C@@H]2CN(C(=O)NCc3cccc(F)c3)CC[C@@H]2C1` | -15.18% | -14.9% |
| `O=C(CCNC(=O)c1ccoc1)Nc1cccc(F)c1` | 0.4513% | -10.3% |
| `CSc1cccc(CN2CCC(CCC(=O)NC3CC3)CC2)c1` | -5.596% | -18.43% |
| `O=C(NCc1csc(Br)c1)Nc1cn[nH]c1` | 1.37% | 6.679% |
| `Cc1nc(CN2CCC3(C2)CN(C(=O)c2conc2C)C3)cs1` | -23.39% | -7.979% |
| `N#CCCN(Cc1ccccn1)C(=O)Nc1cccnc1` | -2.769% | -47.9% |
| `NC(=O)CN(Cc1ccc(Br)cc1)C(=O)c1cnccn1` | 1.23% | -40.02% |
| `Cc1ccc(-c2nnc(CN3CC(n4cc(C)cn4)C3)o2)cc1` | -5.667% | -16.7% |
| `CN1Cc2ccccc2NC(=O)C12CCNC2` (centres unmarked) | -1.86% | -16.84% |
| `CN(C)c1ncnc2c1CCN(C(=O)c1cccnc1)CC2` | -6.077% | 61.89% |
| `Cc1sc(-c2ccco2)nc1C(=O)N1CCCC1Cn1cccn1` (centres unmarked) | -3.59% | -3.599% |
| `COc1cc(NCC(O)CN2CCCCCC2)ncn1` (centres unmarked) | 3.853% | -5.744% |
| `Cn1cnnc1CNC(=O)Nc1ccc(OC2CCC2)c(F)c1` | -3.424% | 25.88% |
| `CC(C)N(C)C[C@H]1C[C@@H]2CN(Cc3ccco3)C[C@@H]2O1` | -7.583% | -28.71% |
| `CCC(O)CN1CCN(C(=O)c2ccn(-c3cccc(F)c3)n2)CC1` (centres unmarked) | 0.449% | 2.86% |
| `CCOCC1CN(Cc2cccc(C#N)c2)Cc2nccn2C1` (centres unmarked) | -6.963% | -6.988% |
| `CCc1nsc(N2CCn3c(nnc3-c3ccccc3)C2)n1` | -3.436% | -13.98% |
| `COc1ncccc1NC(=O)N(C1CC1)C(C)C(C)C` (centres unmarked) | -19.69% | -1.746% |
| `CNC(=O)COc1ccc(CNCc2c(C)nn(C)c2N(C)C)cc1` | -14.14% | -8.914% |
| `COc1ccsc1C(=O)Nc1cc(CN2CCOCC2)ccc1C` | 7.155% | -24.04% |
| `O=C(CCOc1cccc(F)c1)N1CCCC1Cn1cccn1` (centres unmarked) | -15.92% | 2.366% |

The last 9 entries again:

compound	A	B
Cn1cnnc1CNC(=O)Nc1ccc(OC2CCC2)c(F)c1	-3.424%	25.88%
CC(C)N(C)C[C@H]1C[C@@H]2CN(Cc3ccco3)C[C@@H]2O1	-7.583%	-28.71%
CCC(O)CN1CCN(C(=O)c2ccn(-c3cccc(F)c3)n2)CC1 (centres unmarked)	0.449%	2.86%
CCOCC1CN(Cc2cccc(C#N)c2)Cc2nccn2C1 (centres unmarked)	-6.963%	-6.988%
CCc1nsc(N2CCn3c(nnc3-c3ccccc3)C2)n1	-3.436%	-13.98%
COc1ncccc1NC(=O)N(C1CC1)C(C)C(C)C (centres unmarked)	-19.69%	-1.746%
CNC(=O)COc1ccc(CNCc2c(C)nn(C)c2N(C)C)cc1	-14.14%	-8.914%
COc1ccsc1C(=O)Nc1cc(CN2CCOCC2)ccc1C	7.155%	-24.04%
O=C(CCOc1cccc(F)c1)N1CCCC1Cn1cccn1 (centres unmarked)	-15.92%	2.366%